{"sequences": {"note": "Amino acid sequences for entries named in this document (tags omitted).", "UniProt Q0JBA9, entry or part of it": "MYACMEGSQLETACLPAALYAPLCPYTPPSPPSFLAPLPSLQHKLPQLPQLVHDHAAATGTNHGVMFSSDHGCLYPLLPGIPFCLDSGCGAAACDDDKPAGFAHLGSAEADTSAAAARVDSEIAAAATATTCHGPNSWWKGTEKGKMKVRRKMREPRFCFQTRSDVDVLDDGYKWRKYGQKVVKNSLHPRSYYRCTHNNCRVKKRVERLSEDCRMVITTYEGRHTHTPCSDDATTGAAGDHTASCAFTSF"}, "source": "paper PMC7819943", "about": "“Rice protein-binding microarrays: a tool to detect cis-acting elements near promoter regions in rice”", "note": "The list shows a part of the results.", "data": [{"target": "OsWRKY34 (Oryza sativa, UniProt Q0JBA9 1-250)", "test": "protein-binding microarray (RPBM); PBS, 2% BSA, 51.3 ng/ul salmon testes DNA, 50 uM zinc acetate, 200 nM TF, 25 C, 1 h; high values mean tight binding", "conditions": "protein: recombinant; tags: N-terminal polyhistidine and DsRed monomer fusion (pET32a); label: CyDye5-dUTP incorporated in the synthesized complementary strand; 3' TTTTT single-stranded linker to array surface; dsDNA, one strand shown", "summary_of_the_method": "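Transcription factors were each fused at the N-terminus to a polyhistidine tag plus DsRed and expressed in E. coli BL21-CodonPlus before Ni–NTA purification. Binding to a double-stranded custom Agilent array was carried out with 200 nM protein at 25 °C for 1 h in PBS, 2% BSA, salmon testes DNA and 50 µM zinc acetate. The binding signal is per-feature fluorescence intensity, in arbitrary units, on an Axon 4000B scanner.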", "values": [{"sequence": "CTGTAAATTTCCCGGTGGCTTGTCGCATCTCGTTCATCGTCGGAGTCACCTAGTGCAG", "binding signal": "8190 fluorescence intensity (a.u.)"}, {"sequence": "GGTCCCGTTTCCGTTTTTTCCTTTTTTTTTCTTTTTCTCTCGGAGTCACCTAGTGCAG", "binding signal": "14600 fluorescence intensity (a.u.)"}, {"sequence": "TTTTTTATGGGTGGAGGGAGTAGTGTAGGAGTATAGTATACGGAGTCACCTAGTGCAG", "binding signal": "8810 fluorescence intensity (a.u.)"}, {"sequence": "AGGAGGCGCTACCTTCTATTCCTCACCGGCTCACCGCTATCGGAGTCACCTAGTGCAG", "binding signal": "9700 fluorescence intensity (a.u.)"}, {"sequence": "TGGTGGAATAGTTCAAACCGAGGGGAGGGGCATTCCGGGACGGAGTCACCTAGTGCAG", "binding signal": "9580 fluorescence intensity (a.u.)"}, {"sequence": "CACGCCATTAAGCTTTTTTTATATACATATAGTCAATGTTCGGAGTCACCTAGTGCAG", "binding signal": "9130 fluorescence intensity (a.u.)"}, {"sequence": "AGGAACCCCGCGCCGCGCGCACGCCACCCGCGTCCTATCCCGGAGTCACCTAGTGCAG", "binding signal": "11600 fluorescence intensity (a.u.)"}, {"sequence": "GGCCAAAATTTTTCCGAAGTCGTTGTTCTGCTTCTCCATGCGGAGTCACCTAGTGCAG", "binding signal": "8370 fluorescence intensity (a.u.)"}, {"sequence": "GTGCAGCTGTATCCCGTCGTTTTTTCTGACGTGGCACGCACGGAGTCACCTAGTGCAG", "binding signal": "9140 fluorescence intensity (a.u.)"}, {"sequence": "ACTGCTGCTTTTTTTTTTTCATTTTGGCCCAATATTATTACGGAGTCACCTAGTGCAG", "binding signal": "11000 fluorescence intensity (a.u.)"}, {"sequence": "TTCCATTCTACAGGGGTCGTATTTTCAGTCACCTCAATTCCGGAGTCACCTAGTGCAG", "binding signal": "8720 fluorescence intensity (a.u.)"}, {"sequence": "CCGTCGCTCCACCTTGGGTCATGCTATCGCTCTGTCTTGACGGAGTCACCTAGTGCAG", "binding signal": "10300 fluorescence intensity (a.u.)"}, {"sequence": "CCACCATCATTTTTTTTAAAAAAACTCAACAACGTTCACCCGGAGTCACCTAGTGCAG", "binding signal": "8990 fluorescence intensity (a.u.)"}, {"sequence": "ACAATTGCCGCGGTTCCTCCTCACCGTCTTCTCGTTCCACCGGAGTCACCTAGTGCAG", "binding signal": "8450 fluorescence intensity (a.u.)"}, {"sequence": "CATTTGCGTGCCTGATTAATCCTCTCGTCATCTCACCTCACGGAGTCACCTAGTGCAG", "binding signal": "9110 fluorescence intensity (a.u.)"}, {"sequence": "GCGGGTCGACACCAGTCGCGGTCATAGCCTCACCGTCCATCGGAGTCACCTAGTGCAG", "binding signal": "8150 fluorescence intensity (a.u.)"}, {"sequence": "AATAAAGTTGGGTGGTTGGGGCGCGCGATAGGAGTAAATCCGGAGTCACCTAGTGCAG", "binding signal": "17400 fluorescence intensity (a.u.)"}, {"sequence": "CCGTCTCTGTCCGTACTCACCACCACCAACGCTGTGCACCCGGAGTCACCTAGTGCAG", "binding signal": "10300 fluorescence intensity (a.u.)"}, {"sequence": "GGAGCACCGCCCACCGCTCGTCCCCACCGCGGCCGGTGCCCGGAGTCACCTAGTGCAG", "binding signal": "8340 fluorescence intensity (a.u.)"}, {"sequence": "CCTTAGGTCTCTCACAGTGCAGCGTTCTCTTATCCCATTCCGGAGTCACCTAGTGCAG", "binding signal": "8320 fluorescence intensity (a.u.)"}, {"sequence": "CATTCGCTTTTGAAATTATAGATCCGTATTGAGTCGGTTTCGGAGTCACCTAGTGCAG", "binding signal": "9440 fluorescence intensity (a.u.)"}, {"sequence": "AAAGTTACCTAGTTGCATTCTAGTACCATCCACATATTTTCGGAGTCACCTAGTGCAG", "binding signal": "9500 fluorescence intensity (a.u.)"}, {"sequence": "GCGGGCTGTTTTTTTCTTGCGGTTTGGTTTGGGATTTCTGCGGAGTCACCTAGTGCAG", "binding signal": "17400 fluorescence intensity (a.u.)"}]}]}
